The record followed here is article PMC7726220.

By UniProt entry, the sequences of proteins in these tests, tags left out. Residues count along the entry.
UniProt P27467, residues 19-352: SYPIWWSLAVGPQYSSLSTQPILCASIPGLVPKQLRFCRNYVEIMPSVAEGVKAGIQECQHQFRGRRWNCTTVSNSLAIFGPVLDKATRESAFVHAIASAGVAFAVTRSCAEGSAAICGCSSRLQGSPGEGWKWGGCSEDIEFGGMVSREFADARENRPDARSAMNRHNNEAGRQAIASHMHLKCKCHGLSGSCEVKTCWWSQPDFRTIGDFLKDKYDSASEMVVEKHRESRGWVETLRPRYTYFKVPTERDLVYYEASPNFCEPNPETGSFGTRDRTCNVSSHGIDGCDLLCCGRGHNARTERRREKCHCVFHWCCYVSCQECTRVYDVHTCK

Like-named read-outs stand apart in the source and are kept apart here. No constants are given. Whether binding was seen depends on the method and setting. Binding seen in cells or lysates may run through a third protein. Some results given as binding are weak or reduced against the parent protein; the word gives no strength. Where a sequence is shown, tags or fusion partners need not be part of it.

Assay in all cases: co-IP; HEK 293T cells transiently transfected with tagged constructs (or endogenous partner); lysis in 50 mM Tris-HCl pH 8.0, 150 mM NaCl, 10% glycerol, 1 mM EDTA, 1% DDM or 0.5% NP-40; anti-Flag M2, anti-c-Myc or anti-HA magnetic beads; Western blot; in Figure 6D with or without overexpressed TMEM132A
In general terms: A western blot detects proteins with antibodies after separation by electrophoresis.

The target of test [1] is T1, FL Myc-tagged WLS (WLS-Myc) (mouse) (UniProt Q6DID7).
T1 sequence: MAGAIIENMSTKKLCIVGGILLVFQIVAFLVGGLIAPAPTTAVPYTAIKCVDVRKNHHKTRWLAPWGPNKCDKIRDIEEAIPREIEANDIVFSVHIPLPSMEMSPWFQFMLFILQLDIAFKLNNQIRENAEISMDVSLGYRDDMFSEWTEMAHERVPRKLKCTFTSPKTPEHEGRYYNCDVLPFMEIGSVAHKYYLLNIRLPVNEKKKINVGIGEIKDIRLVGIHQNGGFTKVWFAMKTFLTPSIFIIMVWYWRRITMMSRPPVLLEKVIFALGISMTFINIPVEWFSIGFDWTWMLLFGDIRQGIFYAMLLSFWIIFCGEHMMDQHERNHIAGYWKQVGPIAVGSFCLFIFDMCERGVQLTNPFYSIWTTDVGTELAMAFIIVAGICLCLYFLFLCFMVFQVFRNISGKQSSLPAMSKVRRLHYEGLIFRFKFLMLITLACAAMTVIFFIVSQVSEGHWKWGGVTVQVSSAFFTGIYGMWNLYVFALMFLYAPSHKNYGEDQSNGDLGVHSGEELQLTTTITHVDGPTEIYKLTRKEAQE

Test [2] addresses T2, Flag-tagged full-length TMEM132A (FL T132A-Flag) (mouse) (UniProt Q922P8).
T2 sequence: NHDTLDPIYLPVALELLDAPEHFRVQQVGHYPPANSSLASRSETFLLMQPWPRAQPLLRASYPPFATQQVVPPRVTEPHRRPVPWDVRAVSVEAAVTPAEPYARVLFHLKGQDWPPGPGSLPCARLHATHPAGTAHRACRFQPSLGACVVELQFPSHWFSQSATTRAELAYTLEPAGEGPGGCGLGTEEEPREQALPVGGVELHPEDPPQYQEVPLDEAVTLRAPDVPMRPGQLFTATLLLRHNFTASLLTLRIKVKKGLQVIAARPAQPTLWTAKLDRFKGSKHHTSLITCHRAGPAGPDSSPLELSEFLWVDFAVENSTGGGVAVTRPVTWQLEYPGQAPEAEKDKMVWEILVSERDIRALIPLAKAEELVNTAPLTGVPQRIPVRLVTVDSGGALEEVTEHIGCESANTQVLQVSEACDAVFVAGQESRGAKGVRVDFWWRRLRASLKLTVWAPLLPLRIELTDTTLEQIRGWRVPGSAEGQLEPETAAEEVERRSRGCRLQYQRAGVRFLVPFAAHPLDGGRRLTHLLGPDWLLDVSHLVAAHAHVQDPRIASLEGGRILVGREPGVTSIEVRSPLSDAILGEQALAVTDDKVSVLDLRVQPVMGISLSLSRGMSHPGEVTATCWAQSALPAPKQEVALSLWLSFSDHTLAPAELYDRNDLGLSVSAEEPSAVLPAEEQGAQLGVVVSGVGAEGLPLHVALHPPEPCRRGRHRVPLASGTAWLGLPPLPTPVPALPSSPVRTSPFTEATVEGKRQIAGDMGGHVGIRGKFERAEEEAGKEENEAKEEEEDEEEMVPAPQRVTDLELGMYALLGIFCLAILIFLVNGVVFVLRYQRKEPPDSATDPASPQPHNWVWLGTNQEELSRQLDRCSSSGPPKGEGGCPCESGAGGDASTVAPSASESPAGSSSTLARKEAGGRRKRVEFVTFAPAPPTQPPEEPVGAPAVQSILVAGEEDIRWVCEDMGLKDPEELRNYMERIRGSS

The target in test [3] is T3, SNT truncation of T132A-Flag (mouse) (UniProt Q922P8).
T3 sequence: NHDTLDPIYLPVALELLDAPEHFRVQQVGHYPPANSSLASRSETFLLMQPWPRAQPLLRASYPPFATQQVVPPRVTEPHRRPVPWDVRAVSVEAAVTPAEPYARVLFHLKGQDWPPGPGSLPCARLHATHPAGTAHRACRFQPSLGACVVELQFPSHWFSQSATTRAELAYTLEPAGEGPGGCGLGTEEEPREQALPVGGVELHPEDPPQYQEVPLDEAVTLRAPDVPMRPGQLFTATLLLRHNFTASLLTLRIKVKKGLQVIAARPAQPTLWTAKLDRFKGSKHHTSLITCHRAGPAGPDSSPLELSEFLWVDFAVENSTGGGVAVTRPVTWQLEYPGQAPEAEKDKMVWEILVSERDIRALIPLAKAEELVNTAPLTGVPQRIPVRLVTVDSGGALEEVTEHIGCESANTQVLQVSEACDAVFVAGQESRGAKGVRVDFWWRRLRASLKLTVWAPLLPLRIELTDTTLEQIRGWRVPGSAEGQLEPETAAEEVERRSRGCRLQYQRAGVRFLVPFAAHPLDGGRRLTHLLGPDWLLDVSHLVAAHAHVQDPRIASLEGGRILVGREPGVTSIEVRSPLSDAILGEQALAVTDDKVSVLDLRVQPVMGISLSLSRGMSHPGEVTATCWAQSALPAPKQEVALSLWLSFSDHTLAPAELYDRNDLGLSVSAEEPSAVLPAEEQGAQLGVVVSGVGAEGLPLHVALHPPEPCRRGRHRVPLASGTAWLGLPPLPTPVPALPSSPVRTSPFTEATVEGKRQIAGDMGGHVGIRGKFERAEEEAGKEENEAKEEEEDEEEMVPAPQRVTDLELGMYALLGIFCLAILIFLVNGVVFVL

Test [4] concerns the target T4, STC truncation of T132A-Flag (mouse) (UniProt Q922P8).
T4 sequence: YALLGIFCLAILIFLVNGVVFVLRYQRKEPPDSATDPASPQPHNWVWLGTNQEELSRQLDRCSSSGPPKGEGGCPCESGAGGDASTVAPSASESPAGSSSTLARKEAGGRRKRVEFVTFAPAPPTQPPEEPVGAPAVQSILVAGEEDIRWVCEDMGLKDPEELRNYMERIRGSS

Test [5] has as its target T2, Flag-tagged full-length TMEM132A (FL T132A-Flag) (mouse). This is another data set of the same source.

For “HA-tagged WNT3A (FL WNT3A-HA) (from UniProt P27467 19-352) (ligand)”, the binding result in test [1] and in test [2] was “binds” in each case.

B1: HA-tagged full-length TMEM132A (FL T132A-HA) (protein, UniProt Q922P8 33-1018)
chain: NHDTLDPIYLPVALELLDAPEHFRVQQVGHYPPANSSLASRSETFLLMQPWPRAQPLLRASYPPFATQQVVPPRVTEPHRRPVPWDVRAVSVEAAVTPAEPYARVLFHLKGQDWPPGPGSLPCARLHATHPAGTAHRACRFQPSLGACVVELQFPSHWFSQSATTRAELAYTLEPAGEGPGGCGLGTEEEPREQALPVGGVELHPEDPPQYQEVPLDEAVTLRAPDVPMRPGQLFTATLLLRHNFTASLLTLRIKVKKGLQVIAARPAQPTLWTAKLDRFKGSKHHTSLITCHRAGPAGPDSSPLELSEFLWVDFAVENSTGGGVAVTRPVTWQLEYPGQAPEAEKDKMVWEILVSERDIRALIPLAKAEELVNTAPLTGVPQRIPVRLVTVDSGGALEEVTEHIGCESANTQVLQVSEACDAVFVAGQESRGAKGVRVDFWWRRLRASLKLTVWAPLLPLRIELTDTTLEQIRGWRVPGSAEGQLEPETAAEEVERRSRGCRLQYQRAGVRFLVPFAAHPLDGGRRLTHLLGPDWLLDVSHLVAAHAHVQDPRIASLEGGRILVGREPGVTSIEVRSPLSDAILGEQALAVTDDKVSVLDLRVQPVMGISLSLSRGMSHPGEVTATCWAQSALPAPKQEVALSLWLSFSDHTLAPAELYDRNDLGLSVSAEEPSAVLPAEEQGAQLGVVVSGVGAEGLPLHVALHPPEPCRRGRHRVPLASGTAWLGLPPLPTPVPALPSSPVRTSPFTEATVEGKRQIAGDMGGHVGIRGKFERAEEEAGKEENEAKEEEEDEEEMVPAPQRVTDLELGMYALLGIFCLAILIFLVNGVVFVLRYQRKEPPDSATDPASPQPHNWVWLGTNQEELSRQLDRCSSSGPPKGEGGCPCESGAGGDASTVAPSASESPAGSSSTLARKEAGGRRKRVEFVTFAPAPPTQPPEEPVGAPAVQSILVAGEEDIRWVCEDMGLKDPEELRNYMERIRGSS
In the case of B1, the figures for the binding entry in test [3], in test [4] and in test [5] were “binds”, “no binding” and “binds”, respectively.
